Measured values as given in paper PMC7819943, “Rice protein-binding microarrays: a tool to detect cis-acting elements near promoter regions in rice”.
The other results are listed elsewhere or left out.

Biological target: T1, OsSMF1 (Oryza sativa, UniProt Q6ZLB0 1-436)
T1 sequence: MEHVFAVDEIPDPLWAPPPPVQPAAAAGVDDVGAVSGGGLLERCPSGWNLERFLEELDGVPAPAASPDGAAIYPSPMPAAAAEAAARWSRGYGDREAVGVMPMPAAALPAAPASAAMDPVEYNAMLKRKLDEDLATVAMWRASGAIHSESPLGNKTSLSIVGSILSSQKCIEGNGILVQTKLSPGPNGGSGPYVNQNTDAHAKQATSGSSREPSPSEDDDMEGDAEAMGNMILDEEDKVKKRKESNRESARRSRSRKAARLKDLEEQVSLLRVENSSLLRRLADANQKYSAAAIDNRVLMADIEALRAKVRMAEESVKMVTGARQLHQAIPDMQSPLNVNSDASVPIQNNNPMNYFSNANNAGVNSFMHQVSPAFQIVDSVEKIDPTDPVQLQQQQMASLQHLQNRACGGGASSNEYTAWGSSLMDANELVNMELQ
Test: protein-binding microarray (RPBM); PBS, 2% BSA, 51.3 ng/ul salmon testes DNA, 50 uM zinc acetate, 200 nM TF, 25 C, 1 h; high values mean tight binding
Settings: protein: recombinant; tags: N-terminal polyhistidine and DsRed monomer fusion (pET32a); chain copies: 2; label: CyDye5-dUTP incorporated in the synthesized complementary strand; 3' TTTTT single-stranded linker to array surface; dsDNA, one strand shown
Procedure, shortened: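 In PBS with 2% BSA, salmon testes DNA and 50 µM zinc acetate, 200 nM protein was incubated on a custom Agilent array at 25 °C for 1 h and then washed off. The array had been made double-stranded by primer extension with Cy5-dUTP and blocked with 2% BSA. The proteins were transcription factors fused N-terminally to polyhistidine and DsRed, expressed in E. coli BL21-CodonPlus and purified on Ni–NTA. The binding signal is per-feature fluorescence intensity (arbitrary units) from an Axon 4000B scanner.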

Sequence	binding signal
TATCCTCTCCTTGGCCACCGCGCCGCCACATCAGCCTCCCCGGAGTCACCTAGTGCAG	6980 fluorescence intensity (a.u.)
GTGCTTATCTTCCACTTCCATGGATGTCAAATGTGCGTCACGGAGTCACCTAGTGCAG	4260 fluorescence intensity (a.u.)
CGGCCCAGCAGGCGAGCGTGACGTGGACCGGTCGTTTCGCCGGAGTCACCTAGTGCAG	5650 fluorescence intensity (a.u.)
AGGGAGGTTGGATTGTGTTGGTCGTGTCGAGTTGGTCTGTCGGAGTCACCTAGTGCAG	4520 fluorescence intensity (a.u.)
TGGATATACATATGCCATGTCGATTTTGTGCCGAAGTGGACGGAGTCACCTAGTGCAG	3330 fluorescence intensity (a.u.)
GTATGCTTGTTGTACACAGTAATTCTGTCTCATGTAGCCTCGGAGTCACCTAGTGCAG	3420 fluorescence intensity (a.u.)
TAGGGAAAGCAGCCGATGGGCACCGTTGGATCGGGACTGTCGGAGTCACCTAGTGCAG	29900 fluorescence intensity (a.u.)
TTGTTTATCTGAATTTACTGGAGATACTATGGGATGGAATCGGAGTCACCTAGTGCAG	3890 fluorescence intensity (a.u.)
GAACTTATTCCTATCCTACCCACCCAACCCAACCAAGGCGCGGAGTCACCTAGTGCAG	11900 fluorescence intensity (a.u.)
TACCTAATGGCATTGTCCGTCAGCATTTCCAGTGCGTCCACGGAGTCACCTAGTGCAG	3440 fluorescence intensity (a.u.)
ACTCGCCATGACGTATTGCCGTATGCGTACATATCTACATCGGAGTCACCTAGTGCAG	5600 fluorescence intensity (a.u.)
TTCTCTCTCTCTCCTCTCGATGACGAGTCAACACGTGGGCCGGAGTCACCTAGTGCAG	7790 fluorescence intensity (a.u.)
GCGATGACACAATCAAACAAGTTTGAGAACCTGAACGGTCCGGAGTCACCTAGTGCAG	3510 fluorescence intensity (a.u.)
CAATGGTATGGTCAAACATACTGCAGAAATCAATGGGGCGCGGAGTCACCTAGTGCAG	4210 fluorescence intensity (a.u.)
AGACTAATCTATACACGTAGTCACTATATTTGAATGAAAACGGAGTCACCTAGTGCAG	3540 fluorescence intensity (a.u.)
CAAATAATTATTATACTTTGTCATGTCATATAAACTATATCGGAGTCACCTAGTGCAG	3430 fluorescence intensity (a.u.)
CCACGCCACAGCGCGAACTCGCTTACGTGCCCTTCTCCACCGGAGTCACCTAGTGCAG	5840 fluorescence intensity (a.u.)
CGAATTTGCTACCCCATTTCACAAATCAAAAGTGCAAAGCCGGAGTCACCTAGTGCAG	29200 fluorescence intensity (a.u.)
AGCCGCCTCAACCTCCTCGCGCTTTCTCCGCACAACCCGTCGGAGTCACCTAGTGCAG	18000 fluorescence intensity (a.u.)
GCACAATTCGCTTCCCAGTCACCTTCCAAATACTCTGGATCGGAGTCACCTAGTGCAG	3860 fluorescence intensity (a.u.)
TCATACAGGGTGTTGGGAGGGAGATGACACTGGCTTGGGTCGGAGTCACCTAGTGCAG	3200 fluorescence intensity (a.u.)

Sequence	binding signal
GTGGGATCATTGGTGGATGGTGATGATGATGATGGTCACACGGAGTCACCTAGTGCAG	4140 fluorescence intensity (a.u.)
AGTGAGTGCATGACAGGGAAGAAGATAGGAGAAGGCGGAGCGGAGTCACCTAGTGCAG	3540 fluorescence intensity (a.u.)
GTCCCCTTTCCTCTCGCCGCCGACCTCGTCGGCCGTCTCCCGGAGTCACCTAGTGCAG	24600 fluorescence intensity (a.u.)
GATTTGGTGATGTGATGTATTTGTGATCTGTGATGCATTTCGGAGTCACCTAGTGCAG	3450 fluorescence intensity (a.u.)
TGAGTGTTTGGTGCGTGTGGTTTCTTGGGAGATCATGTTACGGAGTCACCTAGTGCAG	10300 fluorescence intensity (a.u.)
AAGCGATGGAAGCAGCAGACGTGTCGCACGGGAATTTGAGCGGAGTCACCTAGTGCAG	5240 fluorescence intensity (a.u.)
AGGGAATAATCCCTTATATTATACAATGGAGGGAGTACATCGGAGTCACCTAGTGCAG	18900 fluorescence intensity (a.u.)
GCCACTGCCAGGTGGGACCCACGACGACACCCTGCCACGTCGGAGTCACCTAGTGCAG	14200 fluorescence intensity (a.u.)
GGTCTTGGTTTCGTCAGCGCCATGGTGTTGTGTGACTTGTCGGAGTCACCTAGTGCAG	5510 fluorescence intensity (a.u.)
CCCAAAATGCCCCACTACATGCGCCACGCCGCGCGCTTCCCGGAGTCACCTAGTGCAG	4050 fluorescence intensity (a.u.)
AGCACCCACAATTATGCTTAGGTGGATAAACTGCTCGAATCGGAGTCACCTAGTGCAG	3690 fluorescence intensity (a.u.)
CCCCTTGCTGAGCCACTGAATCAACTGCTACACCAGCAGCCGGAGTCACCTAGTGCAG	3460 fluorescence intensity (a.u.)
ATCAACGCCGGTGGCGTCCCCAACGCCGGCCACGTGGAGCCGGAGTCACCTAGTGCAG	11700 fluorescence intensity (a.u.)
AGTATCAGATTCCAACTCACATGCCACGTCACATGCATGCCGGAGTCACCTAGTGCAG	42200 fluorescence intensity (a.u.)
AATATTAATGGTGTTCTATATATCTATATACCGCTAATGCCGGAGTCACCTAGTGCAG	26100 fluorescence intensity (a.u.)
TGGCTTCATCACCACAGCTCAGCAGCATCATCGCCTTCGCCGGAGTCACCTAGTGCAG	4010 fluorescence intensity (a.u.)
GCTTAAGGTGTGGTGGCGTGTTTTGATGCCAACAGTAAGACGGAGTCACCTAGTGCAG	3160 fluorescence intensity (a.u.)
CCCCGGCGCACGGATACCTTCCACGTGTTGCGGGCCGGGCCGGAGTCACCTAGTGCAG	11100 fluorescence intensity (a.u.)
CGGCGGCGGAGGAGGAGGAGGAGGAGGGCGCGGGGCGGCGCGGAGTCACCTAGTGCAG	3610 fluorescence intensity (a.u.)
TGATGGTATGATTTTAATTTTGTGCGAATTCGAATGACATCGGAGTCACCTAGTGCAG	3410 fluorescence intensity (a.u.)
TGTGGGTGTGGGCTATTAATAATCGCAGCGTCACTACCACCGGAGTCACCTAGTGCAG	4830 fluorescence intensity (a.u.)

Another view of part of the listing above:
AGTGAGTGCATGACAGGGAAGAAGATAGGAGAAGGCGGAGCGGAGTCACCTAGTGCAG
  binding signal: 3540 fluorescence intensity (a.u.)
GTCCCCTTTCCTCTCGCCGCCGACCTCGTCGGCCGTCTCCCGGAGTCACCTAGTGCAG
  binding signal: 24600 fluorescence intensity (a.u.)
